# Percent effect of library compounds

Protein sequences, listed by entry. Tags and fused reporters are not part of them. Residues count along the entry.
UniProt I6X8D2, whole entry: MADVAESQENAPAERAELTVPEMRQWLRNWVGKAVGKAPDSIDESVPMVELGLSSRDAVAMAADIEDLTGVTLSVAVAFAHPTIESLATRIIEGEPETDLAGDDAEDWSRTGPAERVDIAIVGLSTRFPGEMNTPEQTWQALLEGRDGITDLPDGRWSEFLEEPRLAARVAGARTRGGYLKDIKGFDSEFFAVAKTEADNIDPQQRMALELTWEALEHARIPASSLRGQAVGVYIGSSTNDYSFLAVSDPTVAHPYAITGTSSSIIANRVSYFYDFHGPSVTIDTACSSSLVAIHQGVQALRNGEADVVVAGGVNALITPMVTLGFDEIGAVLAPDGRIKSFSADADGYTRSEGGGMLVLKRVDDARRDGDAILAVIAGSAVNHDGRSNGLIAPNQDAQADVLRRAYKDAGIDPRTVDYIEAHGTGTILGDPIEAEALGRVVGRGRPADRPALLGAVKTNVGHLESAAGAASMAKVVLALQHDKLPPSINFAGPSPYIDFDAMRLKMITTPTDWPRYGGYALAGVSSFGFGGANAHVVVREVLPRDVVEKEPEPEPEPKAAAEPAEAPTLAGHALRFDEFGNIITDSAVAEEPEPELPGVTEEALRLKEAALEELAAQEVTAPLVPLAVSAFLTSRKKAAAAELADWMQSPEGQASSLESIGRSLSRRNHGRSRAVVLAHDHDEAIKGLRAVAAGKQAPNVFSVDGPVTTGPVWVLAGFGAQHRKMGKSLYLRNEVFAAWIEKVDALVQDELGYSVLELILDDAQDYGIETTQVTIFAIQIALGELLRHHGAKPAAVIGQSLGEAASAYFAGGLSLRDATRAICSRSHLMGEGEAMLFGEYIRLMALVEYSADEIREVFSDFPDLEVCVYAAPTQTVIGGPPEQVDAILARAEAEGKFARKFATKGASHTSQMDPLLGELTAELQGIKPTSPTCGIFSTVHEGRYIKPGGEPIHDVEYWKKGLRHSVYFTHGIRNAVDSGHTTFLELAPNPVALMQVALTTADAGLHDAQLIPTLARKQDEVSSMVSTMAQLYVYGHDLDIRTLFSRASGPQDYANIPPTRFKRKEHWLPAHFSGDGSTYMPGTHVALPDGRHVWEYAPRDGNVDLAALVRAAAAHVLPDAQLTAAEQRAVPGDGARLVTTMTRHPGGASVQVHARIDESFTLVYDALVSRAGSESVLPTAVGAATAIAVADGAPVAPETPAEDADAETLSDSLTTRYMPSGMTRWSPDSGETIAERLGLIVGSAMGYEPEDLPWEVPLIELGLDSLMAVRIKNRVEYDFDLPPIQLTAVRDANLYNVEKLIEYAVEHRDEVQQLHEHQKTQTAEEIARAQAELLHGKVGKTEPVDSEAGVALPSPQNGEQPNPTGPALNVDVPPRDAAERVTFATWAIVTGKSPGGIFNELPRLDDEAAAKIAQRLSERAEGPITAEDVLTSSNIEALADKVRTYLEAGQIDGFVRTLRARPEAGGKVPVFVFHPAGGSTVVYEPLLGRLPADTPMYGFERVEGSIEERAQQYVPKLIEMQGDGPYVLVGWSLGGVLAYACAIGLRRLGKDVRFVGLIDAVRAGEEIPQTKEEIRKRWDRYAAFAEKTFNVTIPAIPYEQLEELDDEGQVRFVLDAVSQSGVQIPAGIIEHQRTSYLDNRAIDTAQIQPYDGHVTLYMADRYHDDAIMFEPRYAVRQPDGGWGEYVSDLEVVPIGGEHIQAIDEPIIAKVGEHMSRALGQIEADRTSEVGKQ
UniProt Q4DA54, 1-478: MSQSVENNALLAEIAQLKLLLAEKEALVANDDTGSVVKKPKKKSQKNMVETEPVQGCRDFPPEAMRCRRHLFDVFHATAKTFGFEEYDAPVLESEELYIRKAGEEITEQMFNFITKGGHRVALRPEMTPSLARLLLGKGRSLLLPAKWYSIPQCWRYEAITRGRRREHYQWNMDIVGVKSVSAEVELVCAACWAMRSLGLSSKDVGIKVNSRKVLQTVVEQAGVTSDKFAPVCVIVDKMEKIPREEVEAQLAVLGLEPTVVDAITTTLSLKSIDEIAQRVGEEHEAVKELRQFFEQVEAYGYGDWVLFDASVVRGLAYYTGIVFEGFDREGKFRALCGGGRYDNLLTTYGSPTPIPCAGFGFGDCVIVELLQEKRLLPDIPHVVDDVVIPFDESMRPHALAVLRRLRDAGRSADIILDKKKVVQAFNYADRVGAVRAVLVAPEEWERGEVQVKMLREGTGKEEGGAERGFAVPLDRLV
UniProt P9WFT3, whole entry: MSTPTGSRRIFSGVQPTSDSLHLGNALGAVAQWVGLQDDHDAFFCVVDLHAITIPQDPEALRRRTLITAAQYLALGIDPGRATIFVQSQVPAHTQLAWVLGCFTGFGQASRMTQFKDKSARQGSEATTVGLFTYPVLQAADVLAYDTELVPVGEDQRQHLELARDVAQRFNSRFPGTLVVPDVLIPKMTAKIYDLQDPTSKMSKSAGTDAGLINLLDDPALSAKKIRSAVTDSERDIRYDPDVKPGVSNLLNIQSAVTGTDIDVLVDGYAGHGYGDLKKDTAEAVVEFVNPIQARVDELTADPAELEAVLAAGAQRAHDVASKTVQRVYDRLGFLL
UniProt P9WPC5, whole entry: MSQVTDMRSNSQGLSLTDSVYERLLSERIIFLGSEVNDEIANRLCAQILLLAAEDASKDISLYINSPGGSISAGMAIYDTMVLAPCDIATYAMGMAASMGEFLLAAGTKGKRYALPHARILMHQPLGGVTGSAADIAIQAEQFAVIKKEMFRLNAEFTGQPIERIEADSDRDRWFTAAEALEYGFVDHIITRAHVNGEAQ
UniProt P9WPC3, whole entry partner: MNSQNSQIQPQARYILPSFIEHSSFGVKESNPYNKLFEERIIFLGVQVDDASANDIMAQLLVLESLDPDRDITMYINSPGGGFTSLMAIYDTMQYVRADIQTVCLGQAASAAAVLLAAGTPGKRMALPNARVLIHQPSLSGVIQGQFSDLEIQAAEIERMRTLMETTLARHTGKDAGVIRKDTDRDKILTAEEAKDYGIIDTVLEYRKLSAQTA

From ChEMBL document CHEMBL3988442, “University of Dundee, Small-Polar-MMV Screening Library” (2021).

A: 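Enzyme assay of the thioesterase domain of polyketide synthase 13; the read-out is not stated. Target: Polyketide synthase Pks13, Mycobacterium tuberculosis (UniProt I6X8D2). Tested at 30 µM. Higher reads as stronger inhibition (inferred from which compounds were picked for retests). About 67,000 compounds were tested under these conditions; 0.46% (about 300) showed 50% or more at least once.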
B: 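Histidine-tRNA ligase, Trypanosoma cruzi CL Brener (UniProt Q4DA54). Enzyme assay of histidyl-tRNA synthetase; the read-out is not stated. Concentration: 30 µM. Higher reads as stronger inhibition (inferred: compounds with an IC50 in retests scored well above the rest). Size under these conditions: about 69,000 compounds, about 31 of them at 50% or above in at least one test.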
C: 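Enzyme assay of tryptophanyl-tRNA synthetase; the read-out is not stated. Target: Tryptophan-tRNA ligase, Mycobacterium tuberculosis (UniProt P9WFT3). Tested at 10 µM. Direction is not recorded; retested compounds ran higher, which suggests that high means inhibition. About 65,000 compounds were tested under these conditions; 0.098% (about 64) showed 50% or more at least once.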
D: 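Protease assay of ClpP1P2, read by the AMC dye that it sets free. Target: ClpP1P2, Mycobacterium tuberculosis (UniProt P9WPC5 and UniProt P9WPC3). Compounds at 50 µM. Higher reads as stronger inhibition, judged from the few compounds that gave an IC50. Most other retested compounds had strongly negative values. Of about 69,000 compounds tested this way, about 10 (0.015%) reached 50% or more in at least one test.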

Values are the deposited “Percent Effect”, in %.
How 0% and 100% were set is not recorded. Most values in the screen are low, and negative values occur.
This is an unselected part of the compounds tested.
A dash means the value is not listed here; it may have been measured.

structure | A | B | C | D
CN1CCN(CC2CC2)C(=O)C12CCN(C(=O)c1ccnnc1)CC2 | -39.51% | 3.226% | -2.467% | -1.319%
O=C(c1cnc(-c2cccs2)s1)N1CCCN2CCCC2C1 (configuration not stated) | 9.298% | 5.263% | -3.991% | 14.7%
O=C1N(c2ccccc2)Cc2nc(=O)[nH]n21 | -19.76% | -3.825% | 3.015% | 7.758%
c1csc(CN2CCc3onc(Cn4cccc4)c3C2)c1 | -8.258% | 1.149% | 0.366% | 7.389%
CCN1CC(C(=O)NCc2ccnc(-n3cccn3)c2)CC1=O (configuration not stated) | -30.14% | 4.985% | 3.743% | -7.687%
CC(C)C(C)(C#N)NC(=O)CN1CCC(c2ccnn2CCO)CC1 (configuration not stated) | -3.417% | 7.429% | -1.375% | -14.01%
CCc1nnc2n1CCN(C(=O)c1cn(-c3ccccc3)nn1)C2 | -10.83% | 5.025% | 3.239% | 1.909%
CC(C#N)CNS(=O)(=O)c1ccc(F)c(Br)c1 (configuration not stated) | -12.9% | 4.762% | -1.685% | -1.994%
Cc1cc(CN(C)C(=O)C2CCC(=O)N(CC3CCCCC3)C2)n[nH]1 (configuration not stated) | -27.56% | 4.469% | -5.093% | 1.822%
Cc1nc(C(=O)N2CCCC2c2c(C)nn(C)c2Cl)ccc1C#N (configuration not stated) | -5.818% | 1.127% | -6.773% | -0.4794%
CCc1nccn1C1CCCN(C(=O)CCOCC(F)(F)F)C1 (configuration not stated) | -3.644% | 1.176% | -7.8% | -9.911%
CC(C)Cc1cc(CNC(=O)C2CCCN(C(=O)N(C)C)C2)no1 (configuration not stated) | -2.938% | 3.247% | -0.7346% | 8.273%
Cc1cccc(N2CCN(CCC(=O)NCc3ccc(C)s3)CC2)c1 | -14.71% | 7.538% | -0.2174% | -11.37%
O=C1C[C@H]2[C@@H](CCN2C(=O)c2ccc[nH]2)N1CCN1CCCC1 | 6.901% | 5.263% | -2.252% | -23.14%
NC(=O)c1cnn2c(C3CCN(CCO)CC3)ccnc12 | 8.683% | -1.149% | -2.474% | -29.06%
Cc1n[nH]cc1CNc1ccc2c(c1)N(C(=O)OC(C)(C)C)CCC2 | -3.358% | -0.8368% | -2.071% | 1.039%
O=C(CNc1ccc(F)cc1OCC(F)(F)F)NCC(F)(F)F | -25.15% | -1.031% | 4.933% | -7.503%
CC(=O)N1CCN(C(=O)NC(C)C)CC2(CC(=O)N(C)C2)C1 (configuration not stated) | 10.17% | 4.878% | 1.106% | -4.629%
COc1cccc(C2CCCN2C(=O)c2cc3c(nc2OC)CCC3)c1 (configuration not stated) | -11.33% | 4.348% | -1.009% | -5.403%
O=C(NCCc1ccncc1)c1ccc(S(=O)(=O)NC2CCC2)cc1 | 1.483% | 5.579% | -0.6101% | -9.737%
CC1(C(N)=O)CN(S(=O)(=O)c2cccc(F)c2)CCO1 (configuration not stated) | -21.99% | 1.13% | 16.78% | -8.994%
O=S(=O)(N1CCOCC1)N1CCOC(CCCc2ccccc2)C1 (configuration not stated) | -11.21% | 2.674% | 0.289% | -8.765%
O=S(=O)(c1ccccc1N1CC(n2cccn2)C1)C(F)(F)F | 1.234% | 4.348% | 0.3564% | 3.317%
COCCC(=O)Nc1nccn1Cc1ccc(Br)cc1 | -1.84% | 4.598% | -0.805% | -8.82%
Cc1noc(C2CN(S(C)(=O)=O)Cc3ccnn3C2)n1 (configuration not stated) | 20.89% | 0% | -4.328% | -4.423%
O=C(CC1CC1)N[C@@H]1CN(Cc2ccccn2)C[C@@H]2CCCO[C@@H]21 | -14.53% | 8.824% | -5.045% | -1.592%
COCC1CN(Cc2ccncc2)Cc2nnn(CC3CC3)c21 (configuration not stated) | 4.114% | 5.021% | 0.9114% | -16.01%
c1cc(CN2CCC(c3nnc4n3CCCCC4)CC2)c2nonc2c1 | - | 6.077% | 0.9412% | -10.75%
CC(=O)N1CCN(CCOc2ccc(F)cc2)CC(C(N)=O)C1 (configuration not stated) | 9.237% | -0.7605% | -2.039% | -11.77%
CCS(=O)(=O)N1Cc2ccccc2CC1C(=O)OCc1c(C)noc1C (configuration not stated) | -13.38% | 0.8696% | 2.922% | -0.7909%
O=C(Cn1cc(C(=O)O)ccc1=O)Nc1ccc(Cl)cc1F | -24.02% | -4.918% | 1.005% | 12.86%
CCn1cc(CNC2CCN(c3c(F)cccc3F)C2)cn1 (configuration not stated) | -18.15% | 6.077% | -3.608% | -10.55%
Cc1nc(C)c(C(=O)N2CCC(O)(Cn3ccc4ccncc43)CC2)s1 | -18.4% | 2.996% | - | -12.21%
COc1ccc(NC(=O)CSc2ccc3nncn3n2)c(OC)c1 | -5.402% | 3.96% | -1.929% | -14.62%
CNS(=O)(=O)c1ccc(C(=O)N2CCCC2c2ccccc2)o1 (configuration not stated) | -7.647% | -2.273% | 1.267% | 8.104%
CS(=O)(=O)c1nnc(NC(=O)CCc2cccs2)[nH]1 | -11.69% | -1.724% | 8.817% | 1.787%
O=C(NCc1ccco1)[C@H]1CC[C@@H]2[C@@H](CCN2Cc2cccnc2)O1 | -30.74% | 7.921% | 3.775% | -8.035%
Cc1cnc2c(c1NCc1cccs1)c(=O)n(C)c(=O)n2C | -9.753% | 12.05% | -0.7189% | -1.825%
O=C(O)CNC(=O)Cc1csc(-c2cccc(Cl)c2)n1 | -35.28% | 0.5917% | 12.01% | 6.764%
O=C(Cc1cccnc1)N1CCCC1c1noc(C2CC2)n1 (configuration not stated) | -6.204% | 0.8596% | -6.768% | 1.045%
CN(C)C(=O)CN1CCC2(CCCN(Cc3cccnc3)C2)C1=O (configuration not stated) | -5.132% | 7.143% | -1.44% | -5.463%
OCCOc1cc(F)ccc1NCc1nc(-c2ccoc2)no1 | -11.17% | 9.827% | 1.713% | -4.581%
Cn1nnnc1SCCNC1CCN(c2ccc3c(c2)OCO3)CC1 | 9.553% | 5.882% | -0.9709% | 7.533%
CC(C)[C@@H]1CN(C(=O)CCc2ccc(F)cc2)C[C@H]1C(=O)O | -18.19% | 7.407% | 4.852% | -16.99%
Cn1cc(CN2CCn3cc(CNC(=O)C4CCC4)nc3C2)cn1 | -4.044% | 4.865% | 2.833% | 5.802%
COCCc1noc(CN2CCCCC2Cn2cccn2)n1 (configuration not stated) | -16.8% | 1.724% | -4.382% | 2.486%
O=C(N[C@@H]1CCC[C@@H](n2ccnc2)[C@@H]1O)c1ccc2c(c1)CCCC2 | -58.38% | 1.111% | - | 26.14%
CC(C)Oc1ccccc1-c1cc(CN)ccc1F | 7.485% | 9.189% | -1.356% | -4.123%
O=C(c1cccnc1)N1CCn2nnc(COc3cccnc3)c2C1 | -11.06% | 6.011% | -0.09588% | -5.137%
Cc1nnc([C@H]2C[C@H]3OCC[C@H]3N(S(=O)(=O)N(C)C)C2)o1 | -28.45% | 4.908% | -6.105% | -2.331%
CC(C)(C)OC(=O)NC1CCC(NC(=O)c2ccc[nH]2)CC1 (configuration not stated) | - | 0% | 1.956% | -24.05%
CSCC(C)(O)CNC(=O)c1ccc(Br)cc1C (configuration not stated) | -8.777% | -0.8475% | -3.353% | -15.37%
O=C(c1cscn1)N1CC[C@H]2C[C@H](c3nnc(C4CC4)o3)O[C@@H]2C1 | -3.834% | 0% | - | -3.699%
CCNC(=O)CNC(=O)c1nc(C2CC2)n(-c2ccccc2Cl)n1 | -5.641% | 2.083% | -1.287% | -4.4%
Cc1ccc(-c2nc(CC(=O)NCC3CCCOC3)cs2)o1 (configuration not stated) | -21.66% | 8.38% | -5.509% | -4.04%
O=C(NCCOc1ncc(Cl)cc1Cl)NCc1ccncc1 | -1.698% | 6.186% | -2.584% | -20.3%
Cc1cnn(CC2CCCN2Cc2nc3ccccc3nc2C)c1 (configuration not stated) | -20.22% | -1.887% | 3.675% | -3.193%
O=C(NCc1ccco1)N1CCC(n2ccc(C(F)(F)F)n2)CC1 | -0.197% | 4.294% | 3.342% | -12.69%
N#Cc1ccc(F)c(CN2CCc3sccc3C2)c1 | -6.799% | 2.128% | 1.365% | 1.577%
CC(C)C[C@H](N)c1nnc(SCC(=O)Nc2ccc(Br)cc2)o1 | 0.9706% | 3.659% | 0.4772% | -12.15%
CC(C)(C)n1ncc2c(=O)[nH]c(N3CCN(CC(F)F)CC3)nc21 | -10.93% | 8.108% | -1.487% | 3.454%
c1ccc(CN2CCC(Cc3noc(C4CC4)n3)CC2)cc1 | -8.18% | 14.14% | 4.774% | 1.852%
CN(CCc1ccncc1)CC1CCCN1c1cccnn1 (configuration not stated) | -24.93% | 4.956% | 10.28% | -43.41%
O=C1CCCc2occ(C(=O)N3CCCC4(CCNC4)C3)c21 (configuration not stated) | -35.57% | 7.792% | -1.135% | -4.828%

The last 7 entries again:

| structure | A | B | C | D |
|---|---|---|---|---|
| `O=C(NCc1ccco1)N1CCC(n2ccc(C(F)(F)F)n2)CC1` | -0.197% | 4.294% | 3.342% | -12.69% |
| `N#Cc1ccc(F)c(CN2CCc3sccc3C2)c1` | -6.799% | 2.128% | 1.365% | 1.577% |
| `CC(C)C[C@H](N)c1nnc(SCC(=O)Nc2ccc(Br)cc2)o1` | 0.9706% | 3.659% | 0.4772% | -12.15% |
| `CC(C)(C)n1ncc2c(=O)[nH]c(N3CCN(CC(F)F)CC3)nc21` | -10.93% | 8.108% | -1.487% | 3.454% |
| `c1ccc(CN2CCC(Cc3noc(C4CC4)n3)CC2)cc1` | -8.18% | 14.14% | 4.774% | 1.852% |
| `CN(CCc1ccncc1)CC1CCCN1c1cccnn1` (configuration not stated) | -24.93% | 4.956% | 10.28% | -43.41% |
| `O=C1CCCc2occ(C(=O)N3CCCC4(CCNC4)C3)c21` (configuration not stated) | -35.57% | 7.792% | -1.135% | -4.828% |